The list shows a part of the results. This data set is noisy: repeats of one test often differ as much as different tests do.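 A first-round screen of about ten thousand compounds sought those raising reporter output, using human embryonic kidney cells briefly transfected with a plasmid carrying a Renilla luciferase gene driven by the HSV-TK promoter.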

This assay deals with HEK 293FT. In words: log relative Renilla luciferase luminescence (reporter expression vs reference, reference not stated) (log (base not stated)); higher = higher recombinant reporter expression. To be noted: 10 µM; time after transfection 48 h. On the procedure:
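HEK 293FT cells transiently transfected with pRL-TK (Renilla luciferase) were treated with compounds at 10 uM and luminescence was read about 42 h later. Values are log relative Renilla luminescence (log base and reference not stated). Single-pass screen; 2080 natural products library.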
In the case of `COc1cc(O)c2c(=O)cc(-c3ccccc3)oc2c1` [Tectochrysin], the log came out at 0.153.

As to `C=C1[C@@H]2CC[C@H]3[C@@]45CO[C@](O)([C@@H](OC(C)=O)[C@@H]4C(C)(C)C=CC5=O)[C@]3(C2)[C@@H]1OC(C)=O` [Odonicin], the log was -0.172. `C[C@@H]1CN2C[C@H]3CCC4=C5[C@H](CC4)[C@H](C(=O)O)C[C@@]54C(=O)[C@@H]1C[C@@H]2[C@@]34C` [Daphnilongeranin C]: the log was found to be 0.0673. The same measure for `CC1(C)C(=O)CC[C@]2(C)[C@@H]1CC[C@@]13C[C@@H](CC[C@H]12)[C@@H](CO)C3` (single isomer, unassigned; ent-17) [ent-17-Hydroxykauran-3-one]: -0.594; for `C=C(CO)[C@@H]1CC[C@@]2(C)CCC[C@@](C)(O)[C@@H]2C1` [Ilicol]: -0.0825; for `O=c1cc(-c2ccc(O)c(O)c2)oc2cc(O)cc(O)c12` [Luteolin]: -0.306.

Turning to `C=C1CC[C@H]2[C@@](C)(CCC[C@@]2(C)C(=O)O[C@@H]2O[C@H](CO)[C@@H](O)[C@H](O)[C@H]2O)[C@@H]1CCC1=CCOC1=O`, the log was -0.0462. On to `C=C1CC[C@H]2C(=C)CC[C@H]3C(=C)C(=O)O[C@@H]3[C@@H]12` [Dehydrocostus lactone], for which the log is -0.189.

In the case of `COc1cc2c(=O)oc3c(OC)c(O)cc4c(=O)oc(c1OC)c2c34` [2,3,8-Tri-O-methylellagic acid], the log turned out to be 0.0433.

Consider `C[C@H](C[C@@H](O)[C@@H]1OC1(C)C)[C@@H]1CC[C@]2(C)C3=CC[C@H]4C(C)(C)C(=O)CC[C@]4(C)[C@H]3CC[C@@]12C` [Niloticin], for which the log was 0.0381.

`CC1(C)CC[C@]2(C(=O)O)CC[C@]3(C)C(=CC[C@@H]4[C@@]5(C)C[C@@H](O)[C@@H](O)[C@@](C)(CO)[C@@H]5CC[C@]43C)[C@@H]2C1` [2,3,23-Trihydroxy-12-oleanen-28-oic acid]: the log was -0.0704. With `C=C(C)[C@@H]1CC[C@]2(CO)CC[C@]3(C)[C@H](CC[C@@H]4[C@@]5(C)CC[C@H](O)C(C)(C)[C@@H]5CC[C@]43C)[C@@H]12` [Betulin], the log was -0.0844. In the case of `COc1cc2c(cc1C(C)=O)C=CC(C)(C)O2` [Encecalin], the log is -0.0384. In the case of `C=C1C(=O)O[C@@H]2C[C@@H]3[C@]4(CC[C@]5(C)[C@@H]([C@H](C)CC/C=C(\C)C=O)CC[C@@]35C)C[C@]4(CCC(=O)O)[C@H]12` [Coronalolide] it was 0.102; in that of `COc1cc2ccc(=O)oc2cc1O[C@@H]1O[C@H](CO)[C@@H](O)[C@H](O)[C@H]1O` [Scopolin], 0.0607.

In the case of `O=C1C=C[C@]2(O)CCO[C@@H]2C1` [Cleroindicin F], the log was -0.0297. The same measure for `CC1(C)CC[C@]2(C(=O)O)CC[C@]3(C)C(=CC[C@@H]4[C@@]5(C)CC[C@H](O)[C@@](C)(CO)[C@@H]5[C@H](O)C[C@]43C)[C@@H]2C1` [Uncargenin C]: -0.115. For the compound `CC(C)=CCc1c(O[C@@H]2O[C@H](CO)[C@@H](O)[C@H](O)[C@H]2O)cc(O)c2c1O[C@H](c1ccc(O)cc1)[C@@H](O)C2=O` [Phellamurin], the log was -0.179.

As for `CC(=C/C(=O)O)/C=C/[C@]1(O)[C@@]2(C)CO[C@]1(C)C[C@@H](O)C2` [Dihydrophaseic acid], the log is -0.109. As to `CC(=O)O[C@H]1C(=O)c2c(O)cc(O)cc2O[C@@H]1c1ccccc1` [3-O-Acetylpinobanksin], the log came to 0.0094. The same measure for `COC(=O)C1=CO[C@@H](C)[C@@H]2CN3CCc4c([nH]c5ccc(OC)cc45)[C@@H]3C[C@H]12` [Aricine]: 0.152; for `C[C@@H](CO)CCc1c[nH]c2ccccc12` [Paniculidine C]: -0.327; for `C[C@@H]([C@H]1CC[C@H]2[C@@H]3CC[C@H]4C(=O)C(NC(=O)c5ccccc5)=CC[C@]4(C)[C@H]3CC[C@]12C)N(C)C` [Axillaridine A]: -0.0883. Consider `O=C(CCCCCCCCCCCCCCCCCCCCCCCCCO)OCC(O)CO` (configuration not stated) [Glycerol 1-(26-hydroxyhexacosanoate)], for which the log is -0.253. Consider `COc1cc([C@H]2OC[C@H]3[C@@H]2CO[C@@H]3c2cc(OC)c(OC(C)=O)c(OC)c2)cc(OC)c1OC(C)=O` [Syringaresinol diacetate], for which the log was 0.814. On to `COc1cc2c(cc1OC)-c1cc3cc(OC)c(OC)cc3c[n+]1CC2` [Pseudopalmatine], for which the log was determined as 0.393. For `O=C(OCC1=C[C@@H](O)[C@@H]2C=CO[C@@H](O[C@@H]3O[C@H](CO)[C@@H](O)[C@H](O)[C@H]3O)[C@H]12)c1ccc(O)cc1` [Agnuside], the log was -0.0185.

The values above are taken from the supplement of paper PMC7024190.
